Paper PMC5611444
No constants are given. Whether binding was seen depends on the method and setting. In cells and extracts the contact can be indirect. A yes stands for co-enrichment or nearness to the bait. Other partners may have been found. Where a sequence is shown, tags or fusion partners need not be part of it.

Chains of the proteins cited; added tags and fusions are not shown. Residues count along the entry.
UniProt P27824, residues 21-592: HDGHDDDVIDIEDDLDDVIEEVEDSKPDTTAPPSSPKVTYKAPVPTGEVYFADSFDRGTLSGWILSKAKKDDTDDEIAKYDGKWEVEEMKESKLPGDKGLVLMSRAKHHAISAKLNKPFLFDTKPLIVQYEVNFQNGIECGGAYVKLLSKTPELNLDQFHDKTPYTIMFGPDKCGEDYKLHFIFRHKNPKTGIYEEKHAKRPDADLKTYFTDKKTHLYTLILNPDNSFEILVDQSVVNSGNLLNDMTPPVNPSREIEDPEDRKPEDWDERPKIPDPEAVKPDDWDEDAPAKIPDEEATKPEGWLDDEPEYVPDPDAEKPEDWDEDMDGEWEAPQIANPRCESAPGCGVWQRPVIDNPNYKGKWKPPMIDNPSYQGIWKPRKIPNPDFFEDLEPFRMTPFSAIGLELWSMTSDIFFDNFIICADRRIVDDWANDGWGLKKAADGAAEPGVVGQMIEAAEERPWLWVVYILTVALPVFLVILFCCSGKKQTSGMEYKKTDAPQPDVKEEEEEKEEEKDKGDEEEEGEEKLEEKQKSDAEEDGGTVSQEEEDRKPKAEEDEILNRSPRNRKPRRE

Target: T1, GST-tagged full-length rat Arc (activity-regulated cytoskeleton-associated protein) with C-terminal histidine tag (rat) (UniProt Q63053)
T1 sequence: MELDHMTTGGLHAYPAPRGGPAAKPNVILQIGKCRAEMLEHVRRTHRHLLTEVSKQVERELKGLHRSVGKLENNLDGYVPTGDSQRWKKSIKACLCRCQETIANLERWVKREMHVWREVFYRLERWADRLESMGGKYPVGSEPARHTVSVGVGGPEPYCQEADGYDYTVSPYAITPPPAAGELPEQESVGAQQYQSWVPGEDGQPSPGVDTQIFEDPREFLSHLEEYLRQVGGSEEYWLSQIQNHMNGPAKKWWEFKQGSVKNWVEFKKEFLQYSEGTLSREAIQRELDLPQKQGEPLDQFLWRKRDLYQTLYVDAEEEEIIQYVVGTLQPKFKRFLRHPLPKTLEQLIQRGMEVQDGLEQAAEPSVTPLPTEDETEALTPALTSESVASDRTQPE
Assay: affinity purification with mass spectrometry; GST-Arc or GST on glutathione sepharose beads, pre-cleared HEK293 lysate with 5 mM DTT, overnight at 4°C, washed 4x with ice-cold PBS; Coomassie-stained SDS-PAGE band excised, MALDI-TOF; only the target purified

calnexin, endogenous human (from UniProt P27824 21-592)
binding: binds
